Data as given in PubChem BioAssay AID1259308 (NCATS, 2017).
Aim: 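Candidate targets for better recombinant protein yield in mammalian cells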 (primary screen). System: human HEK293 embryonic kidney cells stably expressing firefly luciferase (HEK-CMV-Luc2-Hygro). Reagents: single siRNA against human genes, 0.8 pmol siRNA per well. Time to read-out: 72 h. Detection: 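Luciferase light (ONE-Glo) measured on one replicate plate set and viability (CellTiter-Glo) on the other, scaled to a negative control siRNA, with robust z-scores and luciferase per cell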. Scale: total luciferase, z-score: higher = more reporter protein produced. Active means: 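Active when the median/MAD z-score for overall luciferase is greater than 3; a gene was taken forward for validation with new siRNAs if at least two of its three siRNAs passed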. Meaning of the calls: active = raised luciferase; inactive = no rise.
Shown is a random part of about 59,000 reagents. In the full data, about 1,510 (2.6%) were called active. 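Calls use total luciferase alone and ignore viability, so some active siRNAs may act by altering cell number.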 Unmarked entries are inactive. Not all columns of the deposit are shown.

After knock-down of NR3C2 [SID160777317], the record shows total luciferase, z-score -0.78.
With knock-down of NR3C2 [SID160777318] the results were total luciferase, z-score -0.549.
Against NR3C2 [SID160777320], the values are total luciferase, z-score -0.572.
After knock-down of IL5RA [SID160775717], the screen gave total luciferase, z-score -0.467.
For IL5RA [SID160775718] the deposit lists total luciferase, z-score -0.648.
After knock-down of IL5RA [SID160775720] the results were total luciferase, z-score -0.111.
With knock-down of RUSC2 [SID160723257], the record shows total luciferase, z-score 0.163.
RUSC2 [SID160723258] scored total luciferase, z-score 0.15.
After knock-down of RUSC2 [SID160723260], the record shows total luciferase, z-score 0.352.
HTR2B [SID160775455] gave total luciferase, z-score 0.344.
For HTR2B [SID160775456], the entry reads total luciferase, z-score 1.46.
Depletion of HTR2B [SID160775457] came out at: total luciferase, z-score 2.18.

Ordered by “total luciferase, z-score” (lowest first): 2 of the entries above
HTR2B [SID160775455] → total luciferase, z-score = 0.344
HTR2B [SID160775456] → total luciferase, z-score = 1.46

The list goes on:
CPT2 [SID160747708] gave total luciferase, z-score 0.373.
After knock-down of CPT2 [SID160747719] the results were total luciferase, z-score -0.0519.
With knock-down of CPT2 [SID160747731] the results were total luciferase, z-score -1.86.
Knock-down of POLI [SID160730193] resulted in: total luciferase, z-score -1.14.
With knock-down of POLI [SID160730194], the screen gave total luciferase, z-score -0.807.
With knock-down of POLI [SID160730195], the record shows total luciferase, z-score 0.239.
With knock-down of PDE6H [SID160714011] the results were total luciferase, z-score -1.33.
PDE6H [SID160714012] gave total luciferase, z-score 0.739.
PDE6H [SID160714013] showed total luciferase, z-score 1.89.
